Data as given in patent US20170355781A1 (CCAM BIOTHERAPEUTICS, published 2017).
Results are given in words; binding and its absence hold for the method and conditions named. Some results given as binding are weak or reduced against the parent protein; the word gives no strength.

How the values were obtained:
[1] = target: T1, recombinant purified human CEACAM1 (human, UniProt P13688 35-428, limits assumed); test: indirect ELISA on plate-bound purified human CEACAM1, double dilutions of CM10
T1 construct: also called purified hCEACAM1; Recombinant CEACAM1
T1 sequence (looked up): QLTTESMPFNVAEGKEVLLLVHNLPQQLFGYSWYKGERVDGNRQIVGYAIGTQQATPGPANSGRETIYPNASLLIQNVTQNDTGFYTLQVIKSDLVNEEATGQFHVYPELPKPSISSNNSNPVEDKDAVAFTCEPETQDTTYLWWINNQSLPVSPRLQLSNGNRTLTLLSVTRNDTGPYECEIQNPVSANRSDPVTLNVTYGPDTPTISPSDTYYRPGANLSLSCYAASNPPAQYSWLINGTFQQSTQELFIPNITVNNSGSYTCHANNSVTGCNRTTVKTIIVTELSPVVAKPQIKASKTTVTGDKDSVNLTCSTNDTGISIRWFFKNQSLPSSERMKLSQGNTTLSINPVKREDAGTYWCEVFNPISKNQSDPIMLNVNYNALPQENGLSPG
Protocol: The binding specificity of CM10 to human CEACAM1 was tested in ELISA assay using purified human CEACAM1. Indirect ELISA using 23 double dilutions of CM10 were used to generate specific binding curve. The results shown in FIG. 2 represent average O.D. from triplicate±SE. Similar results were obtain from other ten independent experiments.

[2] = target: T1, recombinant purified human CEACAM1; test: indirect ELISA on purified human CEACAM1

B1: chimeric monoclonal antibody CM10 (antibody, human IgG1, kappa, V domains shown)
VH: QVQLQQSGAELVRPGTSVKVSCKASGYAFTNNLIEWVKQRPGQGLEWIGVINPGSGDTNYNEKFKGKATLTADKSSNTAYMQLSSLTSDDSAVYFCARGDYYGGFAVDYWGQGTSVTVSS
VL: DIQMTQTTSSLSASLGDRVTISCRTSQDIGNYLNWYQQKPDGTVKLLIYYTSRLHSGVPSRFSGSGSGTDYSLTISNLEQEDIATYFCQQGKSLPRTFGGGTKLEIKR
notes: made in CHO cells; PE-conjugated CM10 was used for the QuantiBRITE count; also called CM10.S91; anti CEACAM1 mAb, CM10
B1 was tested, and the binding [1] was “binds” and the binding [2] was “binds”.
